Experimental findings from the supplement of paper PMC7666118 are described below.

By UniProt entry, the sequences of proteins in these tests, tags left out. Where a name states a change or a piece, a line headed by the entry shows the natural chain unless it says otherwise.
UniProt Q9Y224: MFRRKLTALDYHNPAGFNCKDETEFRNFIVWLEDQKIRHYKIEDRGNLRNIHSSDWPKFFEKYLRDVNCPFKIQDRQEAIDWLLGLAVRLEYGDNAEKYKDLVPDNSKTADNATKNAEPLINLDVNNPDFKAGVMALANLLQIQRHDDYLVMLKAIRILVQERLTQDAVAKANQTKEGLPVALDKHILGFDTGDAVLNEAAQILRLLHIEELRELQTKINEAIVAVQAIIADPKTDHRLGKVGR
UniProt Q8IYL2: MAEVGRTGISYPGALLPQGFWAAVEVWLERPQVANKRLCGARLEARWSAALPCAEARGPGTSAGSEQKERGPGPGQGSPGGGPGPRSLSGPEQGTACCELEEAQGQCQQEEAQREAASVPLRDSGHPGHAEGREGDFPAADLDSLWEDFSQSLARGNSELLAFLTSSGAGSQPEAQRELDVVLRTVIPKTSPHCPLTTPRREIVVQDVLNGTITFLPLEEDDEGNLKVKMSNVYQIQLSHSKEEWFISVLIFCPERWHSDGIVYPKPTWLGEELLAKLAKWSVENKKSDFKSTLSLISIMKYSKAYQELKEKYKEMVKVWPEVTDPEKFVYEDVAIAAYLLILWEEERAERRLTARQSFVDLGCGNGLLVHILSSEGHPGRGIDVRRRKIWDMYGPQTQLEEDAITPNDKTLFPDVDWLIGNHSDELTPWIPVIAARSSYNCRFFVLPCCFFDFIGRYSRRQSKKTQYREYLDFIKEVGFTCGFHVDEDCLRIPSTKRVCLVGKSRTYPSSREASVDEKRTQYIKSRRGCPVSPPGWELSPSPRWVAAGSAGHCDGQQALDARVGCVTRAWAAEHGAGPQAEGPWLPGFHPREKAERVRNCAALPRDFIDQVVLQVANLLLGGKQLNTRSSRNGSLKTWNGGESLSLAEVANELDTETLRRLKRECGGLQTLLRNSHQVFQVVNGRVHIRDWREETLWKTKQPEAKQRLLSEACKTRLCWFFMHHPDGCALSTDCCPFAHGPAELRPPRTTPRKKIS
UniProt Q6P1X6: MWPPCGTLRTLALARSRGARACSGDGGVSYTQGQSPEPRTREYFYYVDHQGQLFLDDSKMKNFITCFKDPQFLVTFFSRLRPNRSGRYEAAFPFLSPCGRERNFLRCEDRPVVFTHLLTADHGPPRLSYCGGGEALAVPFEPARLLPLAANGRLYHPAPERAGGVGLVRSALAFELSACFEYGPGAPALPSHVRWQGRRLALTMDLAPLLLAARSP
UniProt Q4G0N4: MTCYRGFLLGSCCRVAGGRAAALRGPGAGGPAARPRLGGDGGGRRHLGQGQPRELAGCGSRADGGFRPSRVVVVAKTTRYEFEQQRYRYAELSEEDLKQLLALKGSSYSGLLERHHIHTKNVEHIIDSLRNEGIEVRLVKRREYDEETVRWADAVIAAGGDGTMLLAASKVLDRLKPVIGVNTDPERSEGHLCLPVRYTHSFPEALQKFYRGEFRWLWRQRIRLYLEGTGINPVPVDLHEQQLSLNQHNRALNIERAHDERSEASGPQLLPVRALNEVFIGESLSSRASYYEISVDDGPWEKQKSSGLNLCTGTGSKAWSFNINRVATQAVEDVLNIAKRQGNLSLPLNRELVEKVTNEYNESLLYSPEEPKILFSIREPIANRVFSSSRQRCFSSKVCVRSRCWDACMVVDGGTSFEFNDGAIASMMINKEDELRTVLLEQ
UniProt Q9P1Z2: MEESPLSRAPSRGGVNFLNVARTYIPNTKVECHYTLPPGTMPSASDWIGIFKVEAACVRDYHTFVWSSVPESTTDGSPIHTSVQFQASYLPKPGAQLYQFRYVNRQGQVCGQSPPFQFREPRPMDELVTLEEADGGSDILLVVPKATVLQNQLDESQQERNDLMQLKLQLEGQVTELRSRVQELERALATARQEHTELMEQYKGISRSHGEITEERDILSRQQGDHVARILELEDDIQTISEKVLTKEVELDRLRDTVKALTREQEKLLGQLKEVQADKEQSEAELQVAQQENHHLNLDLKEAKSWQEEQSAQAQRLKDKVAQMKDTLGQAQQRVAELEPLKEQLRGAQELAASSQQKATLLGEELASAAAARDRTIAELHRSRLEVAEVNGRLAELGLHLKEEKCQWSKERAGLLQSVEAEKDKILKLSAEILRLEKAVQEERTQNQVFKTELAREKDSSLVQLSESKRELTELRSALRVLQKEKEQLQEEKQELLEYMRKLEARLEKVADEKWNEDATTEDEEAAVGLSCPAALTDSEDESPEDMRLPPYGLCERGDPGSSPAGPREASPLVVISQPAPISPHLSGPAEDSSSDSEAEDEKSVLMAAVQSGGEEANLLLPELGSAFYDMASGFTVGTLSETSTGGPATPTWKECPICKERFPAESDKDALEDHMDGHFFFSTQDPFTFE
UniProt Q9BV29: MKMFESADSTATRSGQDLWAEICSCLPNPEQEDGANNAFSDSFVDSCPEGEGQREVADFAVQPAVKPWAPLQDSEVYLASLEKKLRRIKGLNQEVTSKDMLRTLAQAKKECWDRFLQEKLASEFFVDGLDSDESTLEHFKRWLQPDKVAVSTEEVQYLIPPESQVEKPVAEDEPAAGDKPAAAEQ
UniProt Q9NPL8: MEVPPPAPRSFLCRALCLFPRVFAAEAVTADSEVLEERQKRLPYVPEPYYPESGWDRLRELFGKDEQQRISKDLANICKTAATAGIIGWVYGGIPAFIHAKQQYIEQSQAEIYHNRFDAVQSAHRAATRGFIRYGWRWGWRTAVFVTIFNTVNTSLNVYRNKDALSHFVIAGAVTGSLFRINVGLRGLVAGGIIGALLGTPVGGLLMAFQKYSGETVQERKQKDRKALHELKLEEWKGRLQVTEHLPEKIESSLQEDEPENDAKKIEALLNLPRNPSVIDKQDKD
UniProt Q96ND0: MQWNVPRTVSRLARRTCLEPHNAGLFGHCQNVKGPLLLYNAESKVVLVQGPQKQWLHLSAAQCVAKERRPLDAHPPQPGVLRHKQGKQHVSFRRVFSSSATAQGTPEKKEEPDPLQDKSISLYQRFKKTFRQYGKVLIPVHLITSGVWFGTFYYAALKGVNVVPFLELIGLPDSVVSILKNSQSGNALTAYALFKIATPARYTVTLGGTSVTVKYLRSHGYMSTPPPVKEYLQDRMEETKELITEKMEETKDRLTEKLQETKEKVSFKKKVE
UniProt Q9GZY4: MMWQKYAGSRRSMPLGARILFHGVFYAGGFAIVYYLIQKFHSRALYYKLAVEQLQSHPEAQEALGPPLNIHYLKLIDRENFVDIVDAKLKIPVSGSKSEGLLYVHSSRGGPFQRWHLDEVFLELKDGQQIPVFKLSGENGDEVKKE
UniProt Q96A57: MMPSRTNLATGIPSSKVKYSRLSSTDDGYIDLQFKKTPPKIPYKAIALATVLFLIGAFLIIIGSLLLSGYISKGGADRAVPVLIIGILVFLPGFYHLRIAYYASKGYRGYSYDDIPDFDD
UniProt P54289, whole entry: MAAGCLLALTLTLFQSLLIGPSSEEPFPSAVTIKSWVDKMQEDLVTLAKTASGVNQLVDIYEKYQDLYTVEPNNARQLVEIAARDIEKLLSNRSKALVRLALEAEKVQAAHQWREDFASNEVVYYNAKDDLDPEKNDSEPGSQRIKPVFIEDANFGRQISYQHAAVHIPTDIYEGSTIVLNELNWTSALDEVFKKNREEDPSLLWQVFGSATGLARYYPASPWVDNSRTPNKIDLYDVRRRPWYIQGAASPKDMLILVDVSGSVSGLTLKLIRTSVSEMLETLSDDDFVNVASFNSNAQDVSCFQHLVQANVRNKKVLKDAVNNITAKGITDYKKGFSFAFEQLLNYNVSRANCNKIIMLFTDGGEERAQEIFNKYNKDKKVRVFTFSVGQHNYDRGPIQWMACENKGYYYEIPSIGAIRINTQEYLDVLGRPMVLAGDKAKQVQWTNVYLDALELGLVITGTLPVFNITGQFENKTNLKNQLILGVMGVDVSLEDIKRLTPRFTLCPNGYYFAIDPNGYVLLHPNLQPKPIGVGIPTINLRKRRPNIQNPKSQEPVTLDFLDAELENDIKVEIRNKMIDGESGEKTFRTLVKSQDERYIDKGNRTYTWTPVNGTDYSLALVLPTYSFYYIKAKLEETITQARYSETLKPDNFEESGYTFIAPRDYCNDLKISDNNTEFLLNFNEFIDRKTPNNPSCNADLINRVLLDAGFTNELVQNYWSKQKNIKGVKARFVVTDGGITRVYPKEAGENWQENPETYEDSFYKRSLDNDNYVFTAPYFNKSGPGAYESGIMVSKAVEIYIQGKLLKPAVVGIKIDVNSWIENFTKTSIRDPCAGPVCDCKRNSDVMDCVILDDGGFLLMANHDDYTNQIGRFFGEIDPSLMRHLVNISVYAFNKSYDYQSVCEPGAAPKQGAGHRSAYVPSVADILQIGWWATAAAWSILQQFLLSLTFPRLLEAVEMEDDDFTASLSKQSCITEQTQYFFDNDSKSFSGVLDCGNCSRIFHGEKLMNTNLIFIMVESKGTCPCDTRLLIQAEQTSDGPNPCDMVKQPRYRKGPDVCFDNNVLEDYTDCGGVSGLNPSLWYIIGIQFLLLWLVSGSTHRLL
UniProt Q9GZP4: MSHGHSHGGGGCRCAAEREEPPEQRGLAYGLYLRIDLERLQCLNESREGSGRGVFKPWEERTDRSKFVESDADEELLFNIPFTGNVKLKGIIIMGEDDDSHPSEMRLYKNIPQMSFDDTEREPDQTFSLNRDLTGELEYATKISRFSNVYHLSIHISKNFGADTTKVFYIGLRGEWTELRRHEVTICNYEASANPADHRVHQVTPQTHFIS
UniProt Q68CQ4: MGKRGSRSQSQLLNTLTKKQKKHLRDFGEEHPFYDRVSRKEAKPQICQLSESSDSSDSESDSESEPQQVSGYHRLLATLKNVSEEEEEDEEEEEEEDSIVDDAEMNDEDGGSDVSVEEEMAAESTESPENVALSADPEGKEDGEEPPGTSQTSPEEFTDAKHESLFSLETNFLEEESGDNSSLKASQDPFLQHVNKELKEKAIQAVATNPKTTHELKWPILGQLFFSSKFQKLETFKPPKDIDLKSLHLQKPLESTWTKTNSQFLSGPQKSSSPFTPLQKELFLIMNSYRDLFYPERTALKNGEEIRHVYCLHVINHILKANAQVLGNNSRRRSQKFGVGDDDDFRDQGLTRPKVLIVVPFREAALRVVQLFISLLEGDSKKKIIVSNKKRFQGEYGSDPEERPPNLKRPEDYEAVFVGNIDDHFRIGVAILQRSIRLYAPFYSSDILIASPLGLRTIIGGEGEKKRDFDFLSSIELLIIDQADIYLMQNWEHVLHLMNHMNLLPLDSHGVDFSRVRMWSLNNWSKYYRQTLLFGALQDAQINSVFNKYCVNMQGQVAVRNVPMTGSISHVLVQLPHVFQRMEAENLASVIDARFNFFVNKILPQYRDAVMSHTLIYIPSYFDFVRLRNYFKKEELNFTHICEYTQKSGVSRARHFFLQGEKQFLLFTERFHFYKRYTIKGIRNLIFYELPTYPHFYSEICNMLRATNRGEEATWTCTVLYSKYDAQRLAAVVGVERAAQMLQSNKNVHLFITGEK
UniProt O14523: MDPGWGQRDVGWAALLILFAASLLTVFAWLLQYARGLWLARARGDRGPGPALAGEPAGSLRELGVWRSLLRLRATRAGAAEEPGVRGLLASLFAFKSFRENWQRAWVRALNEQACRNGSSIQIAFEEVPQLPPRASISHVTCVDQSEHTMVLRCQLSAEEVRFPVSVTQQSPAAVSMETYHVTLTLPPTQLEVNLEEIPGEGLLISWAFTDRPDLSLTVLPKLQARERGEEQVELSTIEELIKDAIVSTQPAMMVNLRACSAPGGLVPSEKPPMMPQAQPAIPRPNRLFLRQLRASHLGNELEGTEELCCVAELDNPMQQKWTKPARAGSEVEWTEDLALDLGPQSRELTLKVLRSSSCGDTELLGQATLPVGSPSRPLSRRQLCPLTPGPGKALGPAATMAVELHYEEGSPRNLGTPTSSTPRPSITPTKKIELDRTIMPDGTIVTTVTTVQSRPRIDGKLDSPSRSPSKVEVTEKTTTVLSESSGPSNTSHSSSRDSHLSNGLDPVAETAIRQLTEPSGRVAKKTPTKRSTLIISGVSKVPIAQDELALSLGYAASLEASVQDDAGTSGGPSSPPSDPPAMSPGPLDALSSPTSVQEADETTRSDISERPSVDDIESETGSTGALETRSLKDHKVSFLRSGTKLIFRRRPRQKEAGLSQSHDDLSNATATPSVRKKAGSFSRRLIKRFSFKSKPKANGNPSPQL
UniProt P40121: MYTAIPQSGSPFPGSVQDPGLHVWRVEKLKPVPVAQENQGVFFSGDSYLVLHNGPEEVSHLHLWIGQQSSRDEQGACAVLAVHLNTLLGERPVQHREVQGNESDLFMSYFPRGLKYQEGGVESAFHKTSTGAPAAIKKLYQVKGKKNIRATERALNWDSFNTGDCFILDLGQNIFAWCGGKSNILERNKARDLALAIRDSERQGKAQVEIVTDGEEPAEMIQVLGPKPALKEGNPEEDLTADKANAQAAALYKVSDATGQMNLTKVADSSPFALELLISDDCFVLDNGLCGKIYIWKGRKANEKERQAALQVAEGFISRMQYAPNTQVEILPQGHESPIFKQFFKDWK
UniProt Q629K1: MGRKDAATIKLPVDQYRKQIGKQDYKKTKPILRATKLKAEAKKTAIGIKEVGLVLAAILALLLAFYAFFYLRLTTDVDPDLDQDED

Some of the results follow.

Compound in the experiment: COc1ccc(Cn2ccc3ccc(C(=O)NO)cc32)cc1
Put plainly: dose-dependent thermal stabilisation call (2D-TPP, DLPTP, 10% FDR) (binary (1 = stabilised)); higher = stabilised by the compound. Particulars: system: HL-60 intact cells; concentration range 0.04-10 µM.
For C16ORF58 (UniProt Q96GQ5), the “dose-dependent thermal stabilisation call” value is inactive: 0.

Regarding C14ORF166 (UniProt Q9Y224), the “dose-dependent thermal stabilisation call” value is inactive: 0.

Take C4ORF23 (UniProt Q8IYL2): the “dose-dependent thermal stabilisation call” value was inactive: 0.

Turning to C8ORF82 (UniProt Q6P1X6), the “dose-dependent thermal stabilisation call” value was inactive: 0.

As to C5ORF33 (UniProt Q4G0N4), the “dose-dependent thermal stabilisation call” value was inactive: 0.

Consider C1ORF77 (UniProt Q9Y3Y2), for which the “dose-dependent thermal stabilisation call” value is inactive: 0.

For CBR1 (UniProt P16152), the “dose-dependent thermal stabilisation call” value is inactive: 0.

With CALCOCO1 (UniProt Q9P1Z2), the “dose-dependent thermal stabilisation call” value was inactive: 0.

With C7ORF28A (UniProt P86791), the “dose-dependent thermal stabilisation call” value is inactive: 0.

For C15ORF57 (UniProt Q9BV29), the “dose-dependent thermal stabilisation call” value was inactive: 0.

Regarding C3ORF1 (UniProt Q9NPL8), the “dose-dependent thermal stabilisation call” value is inactive: 0.

Take C18ORF19 (UniProt Q96ND0): the “dose-dependent thermal stabilisation call” value was inactive: 0.

Consider C20ORF74 (UniProt Q2PPJ7), for which the “dose-dependent thermal stabilisation call” value is inactive: 0.

Consider C7ORF44 (UniProt Q9GZY4), for which the “dose-dependent thermal stabilisation call” value is inactive: 0.

In the case of C6ORF211 (UniProt Q9H993), the “dose-dependent thermal stabilisation call” value is inactive: 0.

Take C1ORF31 (UniProt Q5JTJ3): the “dose-dependent thermal stabilisation call” value is inactive: 0.

C20ORF30 (UniProt Q96A57): the “dose-dependent thermal stabilisation call” value was inactive: 0.

For CACNA2D1 (UniProt P54289), the “dose-dependent thermal stabilisation call” value is inactive: 0.

On to C1ORF128 (UniProt Q9GZP4), for which the “dose-dependent thermal stabilisation call” value was inactive: 0.

Consider C14ORF94 (UniProt Q9H6D7), for which the “dose-dependent thermal stabilisation call” value was inactive: 0.

For C7ORF23 (UniProt Q9BU79), the “dose-dependent thermal stabilisation call” value is inactive: 0.

In the case of C1ORF107 (UniProt Q68CQ4), the “dose-dependent thermal stabilisation call” value was inactive: 0.

C2CD2L (UniProt O14523): the “dose-dependent thermal stabilisation call” value is inactive: 0.

As to CAPG (UniProt P40121), the “dose-dependent thermal stabilisation call” value is inactive: 0.

On to C8ORF83 (UniProt Q629K1), for which the “dose-dependent thermal stabilisation call” value was inactive: 0.
